In US20070037253A1, “Methods and compositions for treatment of arthritis and cancer” (priority 2003, published 2007):
At least one compound was matched to its structure with a doubt left.

Biological target: T1, MMP-2 (Homo sapiens, UniProt P08253)
T1 construct: from tissue; host or cells: human synovial fluid
T1 sequence (P08253 110-660): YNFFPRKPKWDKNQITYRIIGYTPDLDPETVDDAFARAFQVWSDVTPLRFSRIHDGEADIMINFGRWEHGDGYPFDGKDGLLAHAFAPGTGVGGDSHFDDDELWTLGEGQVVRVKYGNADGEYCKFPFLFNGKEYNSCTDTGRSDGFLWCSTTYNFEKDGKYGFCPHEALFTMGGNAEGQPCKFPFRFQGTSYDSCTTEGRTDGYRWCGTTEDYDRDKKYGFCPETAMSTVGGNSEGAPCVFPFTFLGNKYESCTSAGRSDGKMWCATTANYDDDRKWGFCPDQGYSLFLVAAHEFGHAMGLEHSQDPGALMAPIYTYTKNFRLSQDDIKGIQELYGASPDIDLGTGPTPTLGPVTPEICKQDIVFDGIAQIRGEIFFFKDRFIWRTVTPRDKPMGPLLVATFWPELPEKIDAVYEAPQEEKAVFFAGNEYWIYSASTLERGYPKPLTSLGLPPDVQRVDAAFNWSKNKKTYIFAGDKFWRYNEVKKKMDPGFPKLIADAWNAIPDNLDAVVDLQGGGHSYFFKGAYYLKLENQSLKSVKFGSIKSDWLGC
Assay: Gelatin zymography of human synovial fluid pre-incubated with inhibitors
Assay type: biochemical
Settings: 5 or 10 μM, pre-incubated 37° C. 1 h
Experimental: (A) Samples containing human synovial fluid (5 μL) and 5 or 10 μM of peptides were pre-incubated at 37° C. for 1 h in Tris-HCl buffer prior to electrophoresis on 10% SDS-PAGE gel containing gelatin (0.1%). […] (B) The mean density (OD/mm2)±SD (n=3), representing MMP-2 activity, obtained by scanning the zymograms using the GS-710 calibrated imaging densitometer (Bio Rad, USA).
Gelatin zymography: human synovial fluid, purified human recombinant MMP-2 and -9 or APMA-activated concentrated culture supernatant samples (10 μL) was mixed (1:1) with Laemmli sample buffer, loaded on 4% acrylamide stacking gel and electrophoresed (120 V) at 4° C. on a 10% acrylamide-resolving minigel containing 0.1% gelatin. After electrophoresis for 1 h, the gels were soaked in 2.5% Triton X-100 on a shaker for 1 h, changing the solution after 30 min, to eliminate SDS. After overnight incubation in zymogen activation buffer [50 mM Tris-HCl, pH 7.5, containing 10 mM CaCl2 and 5 mM ZnCl2] at 37° C., the gels were rinsed in distilled water, and stained for 3 hr with […], after which clear bands of digested gelatin were clearly visible. The gels were briefly rinsed in distilled water and scanned by the Bio-Rad GS-710 Calibrated Imaging Densitometer.

SMILES: CCc1c(C(=O)C(N)=O)c2c(OCC(=O)O)cccc2n1Cc1ccccc1 [LY315920, [[3-(aminooxoacetyl)-2-ethyl-1-(phenylmethyl)-1H-indol-4-yl]oxy]acetate, reference compound]
- MMP-2 gelatinase activity (zymogram densitometry) vs control: did not show any significant difference from the control
